Measured values published in the supplement of paper PMC8291772.
± gives the standard error. The list shows a part of the results. Repeats in this data set agree poorly, so a single value says little.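 The library contained all possible DNA sequences one to five nucleotides in length. General extension ability was assessed against a threshold of the blocked-version mean plus three standard deviations, and the probe detects only chains extended by seven or more dT.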

Chains of the proteins cited; added tags and fusions are not shown. Lines headed by an entry give the natural chain unless they say otherwise; changes in a name come on top.
UniProt P06526: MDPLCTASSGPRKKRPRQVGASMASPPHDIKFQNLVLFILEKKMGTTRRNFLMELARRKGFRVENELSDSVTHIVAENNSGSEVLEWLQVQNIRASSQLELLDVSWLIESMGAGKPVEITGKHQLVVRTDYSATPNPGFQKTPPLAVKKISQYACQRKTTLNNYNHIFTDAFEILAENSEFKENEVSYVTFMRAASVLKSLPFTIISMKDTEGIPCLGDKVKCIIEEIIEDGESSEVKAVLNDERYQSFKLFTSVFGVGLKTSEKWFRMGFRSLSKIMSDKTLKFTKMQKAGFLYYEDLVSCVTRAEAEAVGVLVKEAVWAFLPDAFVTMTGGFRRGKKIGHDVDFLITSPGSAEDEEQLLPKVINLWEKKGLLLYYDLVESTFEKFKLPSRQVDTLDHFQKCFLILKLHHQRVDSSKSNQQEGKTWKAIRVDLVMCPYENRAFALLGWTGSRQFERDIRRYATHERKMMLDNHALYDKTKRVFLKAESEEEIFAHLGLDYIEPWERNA

Target: terminal deoxynucleotidyl transferase (calf thymus) (UniProt P06526)
Test: TdT poly-dT extension signal (Cy3 hybridisation fluorescence, uncapped minus capped) (fluorescence a.u.); higher = more efficient initiation of TdT extension
Conditions: initiator chemistry: D-DNA, free 3'-OH (5'-tethered via HEG linker)
Method: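 All mono- to pentamer initiator sequences were made by photolithographic in situ synthesis (reverse 5'->3' direction) on glass on a single hexaethylene glycol linker. Each was made in uncapped and DMTr-dT-capped versions, about 11 replicate features each. Arrays were extended with calf thymus TdT (0.2 U/uL) and 100 uM dTTP in TdT buffer with 0.25 mM CoCl2 for 120 min at 37 C, then hybridised with an rA18-Cy3 probe at 4 C and scanned at 532 nm. The value is the mean uncapped signal minus the mean capped signal of the same sequence.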

Row | Sequence | TdT poly-dT extension signal
1 | ATAT | 3310 ± 330
2 | TATAG | 3030 ± 500
3 | TTGG | 3610 ± 380
4 | TAATG | 3780 ± 360
5 | CGAAA | 3180 ± 590
6 | TGACC | 3260 ± 220
7 | TTTAG | 4010 ± 440
8 | CAGGT | 3740 ± 380
9 | CCTT | 3660 ± 260
10 | GGGAG | 4310 ± 510
11 | TTATC | 3090 ± 220
12 | TCAA | 3760 ± 590
13 | CCCTA | 3510 ± 440
14 | TGTG | 3200 ± 320
15 | TCGAT | 3740 ± 340
16 | TACCT | 2930 ± 320
17 | CCCG | 3790 ± 430
18 | AGTCC | 2470 ± 250
19 | TGAT | 3910 ± 600
20 | GGGGC | 5320 ± 900
21 | TGGGC | 3640 ± 320
22 | TCAGC | 3160 ± 390
23 | GTCCC | 2290 ± 280
24 | CCGCC | 3520 ± 280

Row | Sequence | TdT poly-dT extension signal
25 | TCAAT | 3450 ± 430
26 | TAGAA | 4110 ± 400
27 | ATCTA | 3750 ± 300
28 | TGAAG | 3840 ± 840
29 | TGGCC | 3130 ± 350
30 | TTATT | 4470 ± 380
31 | CATGC | 3190 ± 320
32 | GCGGA | 4460 ± 440
33 | ATTTC | 2610 ± 280
34 | GATTG | 3190 ± 580
35 | CACAC | 3090 ± 390
36 | TCAAA | 3940 ± 560
37 | CATAA | 4550 ± 330
38 | GCGAA | 4890 ± 820
39 | TTCGA | 4180 ± 760
40 | CTGGC | 3500 ± 350
41 | GTTGT | 3960 ± 320
42 | CGCGG | 5130 ± 650
43 | GGTG | 3990 ± 490
44 | AGGGC | 3550 ± 380
45 | GGAGA | 4670 ± 540
46 | GGCTC | 2560 ± 220
47 | ACCTT | 3770 ± 260
48 | ATAAT | 3860 ± 390

Row | Sequence | TdT poly-dT extension signal
49 | AAACG | 4370 ± 500
50 | AAAGT | 2930 ± 430
51 | TTGGG | 4830 ± 320
52 | TTAGC | 3700 ± 330
53 | AAATG | 4140 ± 240
54 | AAGAC | 2560 ± 400
55 | TATAC | 2720 ± 240
56 | CTACG | 3390 ± 680
57 | GTAAT | 3710 ± 310
58 | ATTAC | 2680 ± 380
59 | GGGTC | 3380 ± 380
60 | TATCT | 3080 ± 300
61 | ATAGT | 3790 ± 330
62 | CTAAA | 3790 ± 410
63 | GTGG | 3420 ± 440
64 | ACAGA | 3390 ± 460
65 | GAAT | 3620 ± 380
66 | TATGT | 3920 ± 300
67 | AGCG | 3140 ± 450
68 | ATAGA | 3670 ± 420
69 | AGGGT | 4010 ± 300
70 | TCGC | 3310 ± 310
71 | AGGTC | 2810 ± 320
72 | TTGGT | 4360 ± 430

Some of the entries above in another layout:
Row,Sequence,TdT poly-dT extension signal
57,GTAAT,3710 ± 310
60,TATCT,3080 ± 300
66,TATGT,3920 ± 300

Following part

Row | Sequence | TdT poly-dT extension signal
73 | GCGA | 2810 ± 480
74 | CTGT | 3650 ± 340
75 | CTTA | 3560 ± 240
76 | AGAAT | 2880 ± 550
77 | TTCAC | 3450 ± 270
78 | TTAA | 2920 ± 380
79 | CACGT | 4340 ± 590
80 | TGGTA | 5260 ± 1000
81 | CGAGC | 3040 ± 350
82 | CGCAC | 3570 ± 250
83 | GGCGG | 3670 ± 460
84 | TTGT | 3800 ± 190
85 | ACTG | 4030 ± 320
86 | GTCC | 2620 ± 330
87 | AAGTG | 3120 ± 410
88 | GCCCA | 3560 ± 280
89 | GTTGA | 4240 ± 620
90 | AACCC | 2900 ± 320
91 | CGTGG | 3360 ± 370
92 | TACG | 2910 ± 230
93 | CGGAC | 2980 ± 380
94 | ATATG | 3240 ± 330
95 | TCCGT | 3880 ± 360
96 | ACTAG | 4430 ± 800

Row | Sequence | TdT poly-dT extension signal
97 | TTACA | 4130 ± 440
98 | CATT | 3060 ± 420
99 | CTCC | 3330 ± 280
100 | AGTAA | 3250 ± 540
101 | AAGCA | 4090 ± 310
102 | CTCGG | 3930 ± 380
103 | CTCA | 3890 ± 390
104 | GCGTG | 3780 ± 300
105 | GCTCG | 3850 ± 650
106 | ATCC | 2650 ± 320
107 | GAGCG | 4010 ± 340
108 | TAGC | 3070 ± 380
109 | CCCGG | 3930 ± 510
110 | ACTGC | 3140 ± 400
111 | CTATG | 2250 ± 540
112 | TCGAC | 2960 ± 380
113 | GTCGA | 4040 ± 640
114 | CACC | 3310 ± 330
115 | GTTAT | 2860 ± 380
116 | GGGT | 3680 ± 340
117 | GAGA | 2940 ± 490
118 | TGTGT | 3410 ± 390
119 | AAGCT | 2970 ± 260
120 | TAGA | 3580 ± 400

Some of the entries so far, as labelled records.
CTCC
  TdT poly-dT extension signal: 3330 ± 280
AGTAA
  TdT poly-dT extension signal: 3250 ± 540
AAGCA
  TdT poly-dT extension signal: 4090 ± 310

Next part:

Row | Sequence | TdT poly-dT extension signal
121 | GCCTA | 3640 ± 330
122 | TGAAC | 3910 ± 240
123 | GGCCA | 3570 ± 370
124 | ATCGT | 3480 ± 320
125 | AAAAA | 4150 ± 610
126 | ACTTA | 3580 ± 410
127 | GTGTC | 3550 ± 180
128 | CTTAG | 3830 ± 470
129 | GATAT | 3790 ± 380
130 | CTGGG | 4590 ± 760
131 | CAACT | 3310 ± 300
132 | AATA | 3780 ± 280
133 | AGATG | 3350 ± 370
134 | ATTTT | 3910 ± 360
135 | AGAGA | 3250 ± 450
136 | CGAGT | 4070 ± 500
137 | CTCGA | 4210 ± 580
138 | TTTCG | 4240 ± 670
139 | CCACG | 3530 ± 650
140 | CGTC | 3080 ± 270
141 | CATGG | 3150 ± 450
142 | CCTTA | 3840 ± 340
143 | TAAAC | 3970 ± 180
144 | CTTTG | 4120 ± 330

Row | Sequence | TdT poly-dT extension signal
145 | TAAGA | 4680 ± 560
146 | GGTAC | 3680 ± 600
147 | AAAAC | 2970 ± 300
148 | TTTT | 3570 ± 480
149 | CTTTT | 3960 ± 400
150 | GATTT | 4070 ± 410
151 | CCCTG | 4100 ± 360
152 | CTCTG | 4170 ± 610
153 | ACGAT | 4110 ± 230
154 | TATCC | 2390 ± 320
155 | GTGCA | 4270 ± 530
156 | TCTCA | 4070 ± 530
157 | TACGG | 3960 ± 350
158 | CACAG | 3750 ± 310
159 | GACTC | 3100 ± 220
160 | ACGT | 3930 ± 290
161 | AGACG | 4090 ± 280
162 | AGCTA | 3600 ± 380
163 | CCCTT | 3850 ± 490
164 | TATCG | 3990 ± 300
165 | GCCG | 3940 ± 640
166 | AGTG | 3130 ± 610
167 | AAGAT | 4510 ± 600
168 | CAGAC | 3040 ± 310

Looked up one by one from the list above:
Row | Sequence | TdT poly-dT extension signal
151 | CCCTG | 4100 ± 360
162 | AGCTA | 3600 ± 380
167 | AAGAT | 4510 ± 600
159 | GACTC | 3100 ± 220
150 | GATTT | 4070 ± 410
157 | TACGG | 3960 ± 350
148 | TTTT | 3570 ± 480

(cont.)

Row | Sequence | TdT poly-dT extension signal
169 | TAAAG | 3830 ± 500
170 | AAAGC | 3520 ± 330
171 | GTGCG | 2990 ± 310
172 | GAAA | 2920 ± 460
173 | GTGA | 2720 ± 400
174 | TCAAC | 3870 ± 290
175 | ACACG | 4000 ± 260
176 | GAGC | 3820 ± 210
177 | ATCT | 4050 ± 240
178 | TCCT | 4050 ± 220
179 | AGCCA | 4280 ± 280
180 | GTACT | 3590 ± 230
181 | TGATG | 4140 ± 360
182 | CGGC | 3830 ± 360
183 | CTGTC | 3570 ± 290
184 | GGTCT | 3920 ± 370
185 | CATTA | 3800 ± 400
186 | GGCAT | 4520 ± 390
187 | GCTA | 2990 ± 330
188 | GGATA | 3980 ± 450
189 | CTTGT | 3690 ± 430
190 | CTTCA | 4120 ± 450
191 | TTGTG | 3600 ± 420
192 | ATGCT | 3420 ± 380

Row | Sequence | TdT poly-dT extension signal
193 | ATTAG | 2660 ± 440
194 | GCTGC | 3540 ± 430
195 | CCACA | 4530 ± 370
196 | GTAGG | 4060 ± 300
197 | CTATA | 3770 ± 530
198 | GTCAT | 3520 ± 380
199 | CCGCT | 3380 ± 580
200 | CCAAT | 3720 ± 540
201 | GATTA | 4310 ± 650
202 | CACCC | 3430 ± 130
203 | TGGTT | 4010 ± 380
204 | TCCTG | 3000 ± 360
205 | GAAG | 3890 ± 440
206 | CCAAC | 3590 ± 180
207 | TCTTT | 3360 ± 460
208 | TAAC | 2550 ± 320
209 | TGGAT | 4470 ± 370
210 | TCTCG | 3360 ± 390
211 | GGAGG | 4510 ± 390
212 | ATGGT | 3880 ± 490
213 | CAGG | 3030 ± 530
214 | ATTGA | 3540 ± 420
